The values that follow come from the supplement of paper PMC10849652.

By UniProt entry, the sequences of proteins in these tests, tags left out. Where a name states a change or a piece, a line headed by the entry shows the natural chain unless it says otherwise.
UniProt Q9BUV0: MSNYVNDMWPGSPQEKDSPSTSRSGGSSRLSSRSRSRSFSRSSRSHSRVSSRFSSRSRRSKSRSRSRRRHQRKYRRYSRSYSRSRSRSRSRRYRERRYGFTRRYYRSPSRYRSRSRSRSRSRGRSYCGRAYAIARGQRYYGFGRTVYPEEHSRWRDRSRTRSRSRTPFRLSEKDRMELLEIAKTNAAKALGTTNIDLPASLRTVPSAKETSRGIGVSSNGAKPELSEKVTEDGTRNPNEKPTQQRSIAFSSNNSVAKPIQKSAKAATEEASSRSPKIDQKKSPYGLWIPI
UniProt Q9Y3V2: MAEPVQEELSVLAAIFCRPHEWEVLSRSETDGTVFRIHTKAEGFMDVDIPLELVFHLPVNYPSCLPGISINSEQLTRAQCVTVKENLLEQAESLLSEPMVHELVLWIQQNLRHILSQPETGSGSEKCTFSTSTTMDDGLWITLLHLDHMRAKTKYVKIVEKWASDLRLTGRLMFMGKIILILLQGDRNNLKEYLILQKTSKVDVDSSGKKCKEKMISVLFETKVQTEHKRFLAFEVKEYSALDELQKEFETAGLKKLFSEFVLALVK
UniProt Q9NZ71: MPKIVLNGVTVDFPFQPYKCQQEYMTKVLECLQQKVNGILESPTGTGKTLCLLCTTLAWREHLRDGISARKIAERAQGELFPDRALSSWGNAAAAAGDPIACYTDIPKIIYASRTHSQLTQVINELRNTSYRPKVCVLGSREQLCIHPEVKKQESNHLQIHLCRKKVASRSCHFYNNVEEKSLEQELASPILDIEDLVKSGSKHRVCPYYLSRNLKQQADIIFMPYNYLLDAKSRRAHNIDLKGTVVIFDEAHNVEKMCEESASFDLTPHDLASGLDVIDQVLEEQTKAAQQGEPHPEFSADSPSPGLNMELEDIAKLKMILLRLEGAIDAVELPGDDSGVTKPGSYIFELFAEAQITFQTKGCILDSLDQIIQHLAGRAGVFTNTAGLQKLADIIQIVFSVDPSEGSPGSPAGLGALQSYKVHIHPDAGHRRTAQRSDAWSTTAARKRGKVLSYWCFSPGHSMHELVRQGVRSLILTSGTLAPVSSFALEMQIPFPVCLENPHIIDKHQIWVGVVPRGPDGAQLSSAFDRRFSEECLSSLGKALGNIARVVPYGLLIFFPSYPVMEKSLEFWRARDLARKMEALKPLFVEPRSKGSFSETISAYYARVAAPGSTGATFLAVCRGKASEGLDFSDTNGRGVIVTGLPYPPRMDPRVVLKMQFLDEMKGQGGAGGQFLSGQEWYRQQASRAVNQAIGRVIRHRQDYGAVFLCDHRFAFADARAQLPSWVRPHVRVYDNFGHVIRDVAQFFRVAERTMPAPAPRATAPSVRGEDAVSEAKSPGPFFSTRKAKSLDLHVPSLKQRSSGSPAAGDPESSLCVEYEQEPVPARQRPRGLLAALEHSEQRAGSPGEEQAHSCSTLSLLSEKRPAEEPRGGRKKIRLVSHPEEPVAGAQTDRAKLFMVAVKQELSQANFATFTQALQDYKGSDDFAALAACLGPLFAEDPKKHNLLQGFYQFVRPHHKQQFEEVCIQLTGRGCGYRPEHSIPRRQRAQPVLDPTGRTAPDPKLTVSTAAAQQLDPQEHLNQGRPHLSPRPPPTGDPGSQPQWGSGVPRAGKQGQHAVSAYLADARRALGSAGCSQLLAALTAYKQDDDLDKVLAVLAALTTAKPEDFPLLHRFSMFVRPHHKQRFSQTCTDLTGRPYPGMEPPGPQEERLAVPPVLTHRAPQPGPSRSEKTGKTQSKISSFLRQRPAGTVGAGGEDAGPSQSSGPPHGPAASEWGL
UniProt P19793: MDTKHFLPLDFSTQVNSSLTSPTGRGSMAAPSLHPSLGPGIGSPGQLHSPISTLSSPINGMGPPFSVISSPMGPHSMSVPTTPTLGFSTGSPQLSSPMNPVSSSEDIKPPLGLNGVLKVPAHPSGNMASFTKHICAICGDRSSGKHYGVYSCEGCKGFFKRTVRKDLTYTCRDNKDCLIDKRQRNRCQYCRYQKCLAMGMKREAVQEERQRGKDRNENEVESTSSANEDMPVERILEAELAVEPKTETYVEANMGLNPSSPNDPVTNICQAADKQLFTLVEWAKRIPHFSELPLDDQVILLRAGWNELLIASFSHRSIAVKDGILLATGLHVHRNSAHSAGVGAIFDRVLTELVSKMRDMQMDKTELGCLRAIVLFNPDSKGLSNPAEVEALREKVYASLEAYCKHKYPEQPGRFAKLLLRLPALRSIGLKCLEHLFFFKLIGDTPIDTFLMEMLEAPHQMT
UniProt Q7L099: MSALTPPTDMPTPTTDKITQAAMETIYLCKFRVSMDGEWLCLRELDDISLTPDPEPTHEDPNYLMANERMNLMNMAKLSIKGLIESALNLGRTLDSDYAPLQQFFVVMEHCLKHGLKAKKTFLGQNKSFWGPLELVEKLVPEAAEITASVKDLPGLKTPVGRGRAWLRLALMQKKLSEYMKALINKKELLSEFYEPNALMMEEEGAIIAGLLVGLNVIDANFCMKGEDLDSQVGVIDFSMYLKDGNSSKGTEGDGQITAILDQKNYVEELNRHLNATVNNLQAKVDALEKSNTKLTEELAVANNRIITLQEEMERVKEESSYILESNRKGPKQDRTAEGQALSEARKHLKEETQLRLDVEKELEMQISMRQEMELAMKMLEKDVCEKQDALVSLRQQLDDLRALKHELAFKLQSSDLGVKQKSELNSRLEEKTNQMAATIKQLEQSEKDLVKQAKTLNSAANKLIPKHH
UniProt Q6P087: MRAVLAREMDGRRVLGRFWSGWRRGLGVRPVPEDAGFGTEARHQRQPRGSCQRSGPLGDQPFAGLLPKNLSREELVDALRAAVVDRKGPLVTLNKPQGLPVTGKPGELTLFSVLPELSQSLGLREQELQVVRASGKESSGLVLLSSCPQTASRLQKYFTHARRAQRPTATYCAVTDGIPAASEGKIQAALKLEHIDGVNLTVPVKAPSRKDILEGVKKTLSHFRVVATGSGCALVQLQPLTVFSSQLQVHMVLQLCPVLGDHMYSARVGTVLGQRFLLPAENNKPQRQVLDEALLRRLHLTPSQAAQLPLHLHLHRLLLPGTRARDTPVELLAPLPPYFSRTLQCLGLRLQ
UniProt Q96C34: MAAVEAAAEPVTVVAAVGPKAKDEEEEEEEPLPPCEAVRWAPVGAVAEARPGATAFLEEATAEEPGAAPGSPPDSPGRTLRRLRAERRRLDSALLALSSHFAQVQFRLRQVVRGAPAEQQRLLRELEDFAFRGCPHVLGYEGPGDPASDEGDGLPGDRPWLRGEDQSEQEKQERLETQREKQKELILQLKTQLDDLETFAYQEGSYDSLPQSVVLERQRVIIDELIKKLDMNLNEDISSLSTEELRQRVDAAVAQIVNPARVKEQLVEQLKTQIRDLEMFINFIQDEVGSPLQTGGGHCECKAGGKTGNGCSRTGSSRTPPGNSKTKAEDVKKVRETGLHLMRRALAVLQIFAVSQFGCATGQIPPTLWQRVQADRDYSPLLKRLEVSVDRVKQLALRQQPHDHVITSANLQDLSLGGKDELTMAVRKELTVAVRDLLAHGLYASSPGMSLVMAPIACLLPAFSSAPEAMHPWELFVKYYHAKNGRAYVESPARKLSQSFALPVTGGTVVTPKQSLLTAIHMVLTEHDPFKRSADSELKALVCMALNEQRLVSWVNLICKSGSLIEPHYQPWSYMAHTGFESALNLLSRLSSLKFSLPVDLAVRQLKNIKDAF
UniProt Q86WX3: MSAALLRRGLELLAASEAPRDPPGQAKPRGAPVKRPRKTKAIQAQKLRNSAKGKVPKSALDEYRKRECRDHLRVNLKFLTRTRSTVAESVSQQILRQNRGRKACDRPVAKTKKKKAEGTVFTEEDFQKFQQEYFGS
UniProt Q9Y2B1: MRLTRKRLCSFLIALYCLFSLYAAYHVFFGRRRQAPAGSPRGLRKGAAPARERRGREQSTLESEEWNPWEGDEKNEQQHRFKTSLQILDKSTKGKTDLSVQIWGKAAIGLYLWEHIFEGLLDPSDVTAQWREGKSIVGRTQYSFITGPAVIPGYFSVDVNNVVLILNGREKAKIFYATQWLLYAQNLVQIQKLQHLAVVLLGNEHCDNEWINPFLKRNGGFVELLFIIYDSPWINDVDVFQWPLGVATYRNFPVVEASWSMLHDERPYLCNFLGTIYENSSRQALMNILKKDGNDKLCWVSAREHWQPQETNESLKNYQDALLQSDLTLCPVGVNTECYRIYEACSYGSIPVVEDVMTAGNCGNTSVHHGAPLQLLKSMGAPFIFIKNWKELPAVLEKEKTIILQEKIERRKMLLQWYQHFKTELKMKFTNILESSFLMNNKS
UniProt Q9P2E9: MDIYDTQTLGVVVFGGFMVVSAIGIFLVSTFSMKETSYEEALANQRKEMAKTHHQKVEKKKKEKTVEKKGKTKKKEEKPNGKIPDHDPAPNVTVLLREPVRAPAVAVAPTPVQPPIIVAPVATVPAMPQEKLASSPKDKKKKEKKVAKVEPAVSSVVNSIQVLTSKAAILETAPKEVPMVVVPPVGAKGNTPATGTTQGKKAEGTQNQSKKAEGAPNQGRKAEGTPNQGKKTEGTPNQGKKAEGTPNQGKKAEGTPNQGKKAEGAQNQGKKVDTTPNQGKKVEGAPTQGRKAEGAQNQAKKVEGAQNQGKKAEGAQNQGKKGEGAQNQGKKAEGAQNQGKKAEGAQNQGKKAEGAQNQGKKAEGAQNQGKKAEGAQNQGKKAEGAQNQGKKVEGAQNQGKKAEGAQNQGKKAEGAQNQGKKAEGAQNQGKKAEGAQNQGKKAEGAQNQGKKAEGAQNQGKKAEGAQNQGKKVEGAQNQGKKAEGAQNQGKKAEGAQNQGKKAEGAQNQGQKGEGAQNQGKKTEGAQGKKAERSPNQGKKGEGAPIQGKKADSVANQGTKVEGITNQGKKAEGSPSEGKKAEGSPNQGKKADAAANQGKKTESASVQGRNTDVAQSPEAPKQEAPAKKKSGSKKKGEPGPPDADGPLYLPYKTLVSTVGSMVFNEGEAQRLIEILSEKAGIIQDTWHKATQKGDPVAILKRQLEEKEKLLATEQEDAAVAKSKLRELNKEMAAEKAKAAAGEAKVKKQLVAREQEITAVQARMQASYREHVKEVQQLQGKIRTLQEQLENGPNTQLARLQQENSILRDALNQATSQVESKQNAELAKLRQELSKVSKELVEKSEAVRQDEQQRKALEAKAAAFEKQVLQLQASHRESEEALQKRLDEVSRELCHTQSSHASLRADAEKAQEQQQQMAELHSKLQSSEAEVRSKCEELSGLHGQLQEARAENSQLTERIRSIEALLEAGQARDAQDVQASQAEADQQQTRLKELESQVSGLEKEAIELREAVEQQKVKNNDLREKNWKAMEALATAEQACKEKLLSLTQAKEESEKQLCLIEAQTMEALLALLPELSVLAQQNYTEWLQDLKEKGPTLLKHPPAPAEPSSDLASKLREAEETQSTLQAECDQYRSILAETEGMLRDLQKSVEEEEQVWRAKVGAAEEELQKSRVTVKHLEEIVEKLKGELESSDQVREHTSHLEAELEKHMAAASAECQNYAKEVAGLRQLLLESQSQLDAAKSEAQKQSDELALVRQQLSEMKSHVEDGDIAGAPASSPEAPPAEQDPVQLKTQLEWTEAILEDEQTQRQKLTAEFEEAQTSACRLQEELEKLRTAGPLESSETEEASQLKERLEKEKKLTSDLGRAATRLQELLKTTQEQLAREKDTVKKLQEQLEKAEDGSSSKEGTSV

Common to all, as to experiment: log2 fold change, soluble protein after heating vs DMSO (PISA); higher = thermal stabilisation; K562 lysate, 10 uM; active = over 0.2 and 3.5 SD of the protein, either way, in both replicates (recomputed)
Compound in test [1]: CCCS(=O)(=O)Nc1ccc(F)c(C(=O)c2c[nH]c3ncc(Cl)cc23)c1F
An outline of the steps: (§1)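 To prepare the extract, K562 pellets were dounce-homogenised in PBS pH 7.4 with 1 mM MgCl2, giving crude material at 1 mg/mL protein. This was treated with 10 μM compound for 30 min, then heated in aliquots for 3 min over 48°C-58°C before pooling and addition of NP-40 to 0.5% at 4°C. Centrifugation at 21,000xg for 90 min left soluble protein in the supernatant, which TMTpro 16plex LC-MS/MS quantified with equalised channel sums. Results are log-two fold changes in thermal stability compared with solvent controls, from duplicates.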

Compound in the next test: CC[C@@H]1C(=O)N(C)c2cnc(Nc3ccc(C(=O)N[C@H]4CC[C@H](N5CCN(CC6CC6)CC5)CC4)cc3OC)nc2N1C(C)C [volasertib]
The essentials:
as §1

Compound in a further test: COc1cc(Nc2ncc3c(n2)-c2ccc(Cl)cc2C(c2c(F)cccc2OC)=NC3)ccc1C(=O)O [alisertib]
The essentials:
as §1

Compound in test [2]: COc1cc2nc(-c3cc(F)ccc3O)nc(N[C@@H]3CNC[C@H]3C(C)(C)O)c2cc1OC
An outline of the steps:
as §1

Compound in another test: COc1cc2ncnc(Nc3ccc(F)c(Cl)c3)c2cc1OCCCN1CCOCC1 [gefitinib]
The essentials:
as §1

Compound in a further test: CN1CCN(CCOc2cc(OC3CCOCC3)c3c(Nc4c(Cl)ccc5c4OCO5)ncnc3c2)CC1 [saracatinib]
The essentials:
as §1

Compound in test [3]: CNc1nc(-c2ccc3c(N)n[nH]c3c2)cc(N2C[C@@H](C(=O)NC3CCCCC3)CC[C@H]2C)n1
An outline of the steps:
as §1

Compound in test [4]: CCn1c(C(=O)N(C2CC2)C2CC2)cc2c3c(ncn3C)c(Nc3cc(C)n(C)n3)nc21
An outline of the steps: as §1

Compound in test [5]: CCn1cc(-c2ccnc3[nH]c(-c4cccc(CN(C)C)c4)cc23)c(-c2ccc(NC(=O)N(C)C)cc2)n1
The essentials:
as §1

Compound in test [6]: CN1CCC(CNc2ccc3ncc(-c4cccc(OC(F)(F)F)c4)n3n2)CC1
The essentials:
as §1

Compound in the next test: CN1CCN(c2nc(C3=C(c4c[nH]c5ccccc45)C(=O)NC3=O)c3ccccc3n2)CC1 [sotrastaurin]
An outline of the steps: as §1

Compound in a further test: CN1CC[C@H](c2c(O)cc(O)c3c(=O)cc(-c4ccccc4Cl)oc23)[C@H](O)C1 [alvocidib]
An outline of the steps: as §1

Compound in a further test: CN1CCc2c(c3ccccc3n2Cc2ccc(C(=O)NO)cc2)C1 [Tubastatin A]
An outline of the steps:
as §1

Compound in test [7]: CNC(=O)C1=CC=CC=C1NC2=NC(=NC=C2Cl)NC3=C(C=C(C=C3)N4CCOCC4)OC
The essentials: as §1

Compound in a further test: CCN(CCCOc1ccc2c(Nc3cc(CC(=O)Nc4cccc(F)c4)[nH]n3)ncnc2c1)CCOP(=O)(O)O [barasertib]
An outline of the steps:
as §1

Compound in another test: CCCS(=O)(=O)Nc1ccc(F)c(C(=O)c2c[nH]c3ncc(-c4ccc(Cl)cc4)cc23)c1F [vemurafenib]
The essentials: as §1

Compound in test [8]: CC[C@@H]1C(=O)N(C)c2cnc(Nc3ccc(C(=O)NC4CCN(C)CC4)cc3OC)nc2N1C1CCCC1
The essentials:
as §1

Compound in the next test: CNC(=O)c1ccc(Nc2ncc(C(F)(F)F)c(NCc3nccnc3N(C)S(C)(=O)=O)n2)cc1 [defactinib]
The essentials:
as §1

Compound in another test: COC(=O)N[C@@H](C)CNc1nccc(-c2cn(C(C)C)nc2-c2cc(Cl)cc(NS(C)(=O)=O)c2F)n1 [encorafenib]
An outline of the steps:
as §1

Compound in test [9]: COC(=O)[C@H](CCSC)NC(=O)C1=C(C=C(C=C1)NC[C@H](CS)N)C2=CC=CC=C2
An outline of the steps: as §1

Some of the results follow.

As to RPS15, A0A0B4J2B4, the log2 fold change was inactive: -0.091 in [1]; inactive: -0.08 with volasertib; inactive: -0.12 in the test with alisertib; inactive: 0.077 in [2]; inactive: -0.128 with gefitinib.

Regarding RSRP1 (UniProt Q9BUV0), the log2 fold change was inactive: 0.016 with saracatinib and inactive: -0.072 in test [3].

Take RWDD3 (UniProt Q9Y3V2): the log2 fold change in [4] is inactive: 0.199; in [5], inactive: 0.392; in test [6], inactive: -0.169; with saracatinib, inactive: 0.115; with sotrastaurin it was inactive: 0.034; with alvocidib, inactive: -0.089. In addition, the log2 fold change is inactive: 0.177 with Tubastatin A and inactive: -0.204 in [3].

On to RTEL1 isoform 2 (UniProt Q9NZ71), for which the log2 fold change with saracatinib was inactive: 0.14; in test [3], inactive: -0.014; with alisertib, inactive: -0.049; with gefitinib, inactive: 0.083.

RXRA (UniProt P19793): the log2 fold change in [1] was inactive: -0.121; in the test with volasertib it was inactive: 0.026; in test [4], inactive: -0.061; in test [5], active: -0.359; in test [6], inactive: 0.13; with saracatinib, inactive: -0.093. Further, the log2 fold change with sotrastaurin is inactive: 0.013; with alvocidib, inactive: -0.019; with Tubastatin A, inactive: 0.138; in test [7], inactive: -0.06; in [3], inactive: 0.072; with alisertib, inactive: -0.117. The log2 fold change in test [2] was inactive: 0.018; with gefitinib it was inactive: 0.043.

With RPSA (UniProt F8WD59), the log2 fold change in [5] is inactive: 0.95; in test [6] it was inactive: -0.006; with saracatinib, inactive: -0.262; with alvocidib, inactive: 0.092; in test [3] it was inactive: -0.053; with alisertib, inactive: -0.363. In the test with gefitinib, the log2 fold change was inactive: 0.041.

As to RUFY3 isoform 2 (UniProt Q7L099), the log2 fold change was inactive: 0.072 in test [1]; inactive: -0.003 with barasertib; inactive: -0.095 in the test with volasertib; inactive: 0.089 in test [4]; inactive: 0.455 in test [5]; inactive: -0.149 in [6]. Further, the log2 fold change with saracatinib is inactive: 0.049; with sotrastaurin, inactive: 0.067; with alvocidib, inactive: 0.1; in the test with Tubastatin A it was inactive: -0.172; in [7], inactive: -0.018; in test [3] it was inactive: -0.03. For the same target, the log2 fold change in test [2] is inactive: 0.067.

Consider RTN4, A0A0U1RQR6, for which the log2 fold change in test [4] was inactive: -0.293; in test [5], inactive: -0.032; in [6], inactive: 0.098; in the test with alvocidib, inactive: -0.037; with Tubastatin A it was inactive: 0.243.

As for RPUSD3 (UniProt Q6P087), the log2 fold change in the test with vemurafenib is inactive: -0.006; in test [8], inactive: -0.004; in [5], inactive: 0.054; in test [6], inactive: -0.101; in the test with saracatinib, inactive: -0.066; in the test with sotrastaurin, inactive: -0.037. Moreover, the log2 fold change with alvocidib was inactive: 0.018; in test [7], inactive: -0.036; with defactinib, inactive: -0.003; in test [3], inactive: -0.054; with encorafenib, inactive: 0.022; in test [9], inactive: 0.064. Also, the results for the log2 fold change with alisertib and with gefitinib were inactive: -0.012 and inactive: 0.059, respectively.

Consider RUNDC1 (UniProt Q96C34), for which the log2 fold change with barasertib was inactive: -0.073; in test [4] it was inactive: -0.085; in [5], inactive: -0.091; in [6] it was inactive: 0.054; with saracatinib it was inactive: -0.09; with sotrastaurin, inactive: 0.012. Moreover, the log2 fold change in the test with alvocidib was inactive: -0.024; with Tubastatin A, inactive: -0.321; in test [7], inactive: 0.072; in test [3], inactive: 0.083.

For the target RPS19BP1 (UniProt Q86WX3), the log2 fold change in test [1] was inactive: -0.106; in test [8] it was inactive: 0.11; with volasertib, inactive: -0.022; in the test with sotrastaurin it was inactive: 0.041; with encorafenib, inactive: 0.281; in test [9] it was inactive: 0.16. The log2 fold change in test [2] was inactive: 0.077.

RXYLT1 (UniProt Q9Y2B1): the log2 fold change in test [1] is inactive: -0.103; with volasertib, inactive: -0.001; in test [4] it was inactive: -0.112; with saracatinib, inactive: 0.091; with Tubastatin A it was inactive: -0.058; in [7], inactive: -0.163. Moreover, the log2 fold change in test [3] is inactive: -0.065; with alisertib, inactive: 0.004; in [2], inactive: 0.22; with gefitinib, inactive: -0.088.

Take RRBP1 isoform 3 (UniProt Q9P2E9): the log2 fold change was inactive: 0.054 with vemurafenib; inactive: -0.023 with barasertib; inactive: 0.006 in test [8]; inactive: -0.034 in test [4]; inactive: 0.023 in the test with saracatinib; inactive: 0.012 with sotrastaurin. The log2 fold change was inactive: 0.018 in the test with Tubastatin A; inactive: -0.074 in test [7]; inactive: 0.088 with defactinib; inactive: -0.011 in [3]; inactive: -0.065 with encorafenib; inactive: -0.044 in test [9].

On to RPS19 (UniProt M0R2L9), for which the log2 fold change is inactive: 0.167 in the test with vemurafenib; inactive: 0.092 in test [8]; inactive: -0.125 in test [4]; inactive: -0.458 with saracatinib; inactive: 0.413 with sotrastaurin; inactive: 0.199 with Tubastatin A. Also, the log2 fold change in test [7] is inactive: -0.296; with defactinib, inactive: 0.152; in test [3] it was inactive: 0.015; with encorafenib, inactive: -0.224; in [9], inactive: 0.
